Assay results published in publication PMC6523098.
These are yes or no findings as the source states them, for the method shown. Some binding calls cover weakened binding; strength is not graded here.

By UniProt entry, the sequences of proteins in these tests, tags left out. Where a name states a change or a piece, a line headed by the entry shows the natural chain unless it says otherwise. Chains listed by the source or under a name are the forms on record and can include a tag or linker.
UniProt O22286: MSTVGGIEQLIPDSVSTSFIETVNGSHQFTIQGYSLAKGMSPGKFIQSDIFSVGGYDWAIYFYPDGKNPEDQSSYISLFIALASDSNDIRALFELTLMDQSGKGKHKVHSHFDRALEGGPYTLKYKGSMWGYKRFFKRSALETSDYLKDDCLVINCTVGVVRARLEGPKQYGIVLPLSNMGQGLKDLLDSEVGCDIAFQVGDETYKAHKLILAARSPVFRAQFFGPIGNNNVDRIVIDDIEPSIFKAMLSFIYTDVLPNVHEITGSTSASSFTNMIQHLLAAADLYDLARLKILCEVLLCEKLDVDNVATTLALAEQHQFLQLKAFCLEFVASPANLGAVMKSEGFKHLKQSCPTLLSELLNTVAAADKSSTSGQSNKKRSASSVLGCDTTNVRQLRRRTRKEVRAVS
UniProt Q8H1E4: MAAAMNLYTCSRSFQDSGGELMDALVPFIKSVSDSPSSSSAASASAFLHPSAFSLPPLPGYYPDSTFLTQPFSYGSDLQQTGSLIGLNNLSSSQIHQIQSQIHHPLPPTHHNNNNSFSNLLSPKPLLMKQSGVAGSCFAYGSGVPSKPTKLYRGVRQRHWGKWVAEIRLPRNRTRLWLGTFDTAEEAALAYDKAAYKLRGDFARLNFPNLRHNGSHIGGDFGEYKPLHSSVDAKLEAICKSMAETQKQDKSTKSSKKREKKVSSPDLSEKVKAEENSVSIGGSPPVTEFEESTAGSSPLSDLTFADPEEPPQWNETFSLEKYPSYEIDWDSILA
AtRAP2.4 with the SBC motif deleted (Q8H1E4, form named): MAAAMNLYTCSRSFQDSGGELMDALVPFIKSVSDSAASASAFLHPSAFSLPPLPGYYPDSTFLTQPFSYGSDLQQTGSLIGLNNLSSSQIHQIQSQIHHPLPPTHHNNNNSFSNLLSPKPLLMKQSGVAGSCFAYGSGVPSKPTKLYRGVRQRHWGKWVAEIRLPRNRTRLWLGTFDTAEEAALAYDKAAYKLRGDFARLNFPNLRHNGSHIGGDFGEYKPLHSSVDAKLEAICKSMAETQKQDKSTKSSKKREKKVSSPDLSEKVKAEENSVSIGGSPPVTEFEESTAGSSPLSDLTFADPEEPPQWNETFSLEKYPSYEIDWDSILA

Molecular target: His:AtBPM3 (Arabidopsis thaliana) (UniProt O22286)
Assay: pull-down; recombinant GST:RAP2.4 proteins and His:AtBPM3, which of them was on beads is not stated for these panels; blots quantified, full length set to 100%; both purified

| Substance | binding |
| --- | --- |
| AtRAP2.4 with the SBC motif deleted (from UniProt Q8H1E4 1-334) | binds |
| GST:AtRAP2.4 (from UniProt Q8H1E4 1-334) | binds |
